Laboratory results published in US8975384B2, “Tag peptide and use thereof” (Osaka University, priority 2008, dated 2015).

These substances were tested on P20.1 antibody-Sepharose (assay: Pull-down efficiency with P20.1 antibody-immobilized beads). Conditions: supernatant after 20 μL P20.1 antibody-Sepharose per 1 mL, 4° C., 1 hour.
Type: binding, mouse
Method: Three different hGH-γC-P4 fusion proteins, which have P4×1, P4×3 or P4×5, were separately expressed in HEK293T cells. The fusion protein in the separate cell culture supernatant was quantified by the sandwich ELISA (which adopts a system of hGH antibody-mediated capture+anti-BAS serum-mediated detection, and is not dependent on the responsiveness to the P20.1 antibody) (before pull-down). Aside from this, to 1 mL of the cell culture supernatant, 20 μL of the P20.1 antibody-Sepharose (bead form) was added, and then the mixture was allowed to react at 4° C. for 1 hour. After the beads were precipitated by centrifugation, the fusion protein in the supernatant was quantified by the sandwich ELISA (which adopts a system of hGH antibody-mediated capture+anti-BAS serum-mediated detection, and is not dependent on the responsiveness to the P20.1 antibody) (after pull-down). The fusion protein purified with Ni-NTA agarose was used as a standard, and based on the standard curve, the fusion protein concentrations before and after pull-down by the P20.1 antibody were determined. As is clear from Table 4, 3 to 5 repeats of the P4 sequence achieves the binding efficiency of about 80%.
For “P4 × 3: hGH/fibrinogen γC fusion protein tagged with 3 repeats of the P4 sequence GYPGQV”, the “Fusion protein After pull-down” value was 0.22 µg/mL.
With “P4 × 5: hGH/fibrinogen γC fusion protein tagged with 5 repeats of the P4 sequence GYPGQV” the “Fusion protein After pull-down” value was 0.17 µg/mL.
For “P4: hGH/fibrinogen γC fusion protein tagged with 1 repeat of the P4 sequence GYPGQV”, the “Fusion protein After pull-down” value was 0.6 µg/mL.
